In paper PMC10644448 one finds binding data, which are given here for 1 substance.

Sequences of proteins named here, by UniProt entry; tags and fusion partners are left off. A change or cut given only in a name is not applied to a line headed by its entry. A line that says so, or that is headed by a name, gives the form on record, which may keep a tag or linker.
UniProt P40692: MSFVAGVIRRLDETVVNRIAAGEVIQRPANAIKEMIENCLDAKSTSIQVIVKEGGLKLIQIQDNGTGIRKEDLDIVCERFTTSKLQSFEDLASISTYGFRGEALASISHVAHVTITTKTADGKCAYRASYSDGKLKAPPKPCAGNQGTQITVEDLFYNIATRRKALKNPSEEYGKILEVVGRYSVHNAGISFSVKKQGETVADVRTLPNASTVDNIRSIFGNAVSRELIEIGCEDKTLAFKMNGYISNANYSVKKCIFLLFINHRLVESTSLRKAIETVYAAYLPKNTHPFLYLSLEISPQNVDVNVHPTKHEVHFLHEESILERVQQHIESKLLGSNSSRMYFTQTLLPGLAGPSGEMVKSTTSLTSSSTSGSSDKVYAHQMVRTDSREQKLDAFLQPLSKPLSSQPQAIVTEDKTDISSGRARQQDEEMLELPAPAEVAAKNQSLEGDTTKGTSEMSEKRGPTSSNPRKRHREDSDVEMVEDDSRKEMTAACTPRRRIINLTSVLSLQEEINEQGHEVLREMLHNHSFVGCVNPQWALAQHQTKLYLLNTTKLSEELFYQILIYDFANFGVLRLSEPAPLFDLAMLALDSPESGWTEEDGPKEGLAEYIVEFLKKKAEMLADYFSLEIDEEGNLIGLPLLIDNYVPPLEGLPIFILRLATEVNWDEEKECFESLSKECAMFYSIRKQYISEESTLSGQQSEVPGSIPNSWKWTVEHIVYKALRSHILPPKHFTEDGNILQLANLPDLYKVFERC
endogenous MBD4 (HeLa nuclear extract) (O95243-2, form named): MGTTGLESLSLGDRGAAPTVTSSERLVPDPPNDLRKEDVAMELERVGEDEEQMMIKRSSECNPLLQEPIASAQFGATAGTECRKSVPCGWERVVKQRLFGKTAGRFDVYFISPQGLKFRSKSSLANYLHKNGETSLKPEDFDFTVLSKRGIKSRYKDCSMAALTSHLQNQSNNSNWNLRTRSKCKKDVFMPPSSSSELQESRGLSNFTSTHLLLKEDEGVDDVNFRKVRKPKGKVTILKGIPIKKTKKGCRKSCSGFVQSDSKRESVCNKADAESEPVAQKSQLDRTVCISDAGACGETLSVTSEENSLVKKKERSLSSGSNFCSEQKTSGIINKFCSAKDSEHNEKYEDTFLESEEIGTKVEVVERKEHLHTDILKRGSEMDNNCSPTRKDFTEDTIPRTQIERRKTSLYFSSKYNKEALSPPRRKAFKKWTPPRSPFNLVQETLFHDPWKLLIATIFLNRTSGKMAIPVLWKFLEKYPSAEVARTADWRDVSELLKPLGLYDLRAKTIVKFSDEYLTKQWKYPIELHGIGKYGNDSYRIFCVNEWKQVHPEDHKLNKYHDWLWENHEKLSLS

No constants are given. Whether binding was seen depends on the method and setting. In cells and extracts the contact can be indirect. Some binding calls cover weakened binding; strength is not graded here.

This test has as its target endogenous MLH1 (HeLa) (human (endogenous in HeLa)) (UniProt P40692). Put plainly: co-IP; immunoprecipitation of endogenous MBD4 or endogenous MLH1 from non-tagged HeLa cell nuclear extracts with specific antibodies; Western blot.

As to “endogenous MBD4 (HeLa nuclear extract) (from UniProt O95243-2 1-574)”, the binding result was “binds”.
